Earlier results in US9428493B2, “Schweinfurthin analogues” (University of Iowa Research Foundation, priority 2012, dated 2016).
Some results were stated once for a whole list of compounds, not compound by compound. For at least one compound, name, drawing or mass did not settle the structure.

System: National Cancer Institute 60 human tumor cell line
Settings: mean over the 60-cell line panel; cited from earlier work

Compound | GI50
COc1cc(/C=C/c2cc(O)c(C/C=C(\C)CCC=C(C)C)c(O)c2)cc2c1O[C@]1(C)C[C@@H](O)[C@@H](O)C(C)(C)[C@H]1C2 [Schweinfurthin B] | < 1 µM
Schweinfurthin D | < 1 µM
